In the series the target is TOP3α (21-750) (Homo sapiens) (UniProt Q13472). Briefly: EMSA. As to conditions: 300 pmol protein, 50 pmol DNA in 10 uL, longer DNA bound more efficiently, EMSA: Beyotime GS005 binding buffer, 37 C, 15 min, 6% PAGE in TBE at 4 C, recombinant protein, residues 21-750, protein details: C-terminal LE-6xHis, label: none for EMSA (GelRed stain). (In general: Mobility shift assays separate free from complexed probe on a gel.)

Sequences of proteins named here, by UniProt entry; tags and fusion partners are left off. Residues count along the entry.
UniProt Q13472, 21-750: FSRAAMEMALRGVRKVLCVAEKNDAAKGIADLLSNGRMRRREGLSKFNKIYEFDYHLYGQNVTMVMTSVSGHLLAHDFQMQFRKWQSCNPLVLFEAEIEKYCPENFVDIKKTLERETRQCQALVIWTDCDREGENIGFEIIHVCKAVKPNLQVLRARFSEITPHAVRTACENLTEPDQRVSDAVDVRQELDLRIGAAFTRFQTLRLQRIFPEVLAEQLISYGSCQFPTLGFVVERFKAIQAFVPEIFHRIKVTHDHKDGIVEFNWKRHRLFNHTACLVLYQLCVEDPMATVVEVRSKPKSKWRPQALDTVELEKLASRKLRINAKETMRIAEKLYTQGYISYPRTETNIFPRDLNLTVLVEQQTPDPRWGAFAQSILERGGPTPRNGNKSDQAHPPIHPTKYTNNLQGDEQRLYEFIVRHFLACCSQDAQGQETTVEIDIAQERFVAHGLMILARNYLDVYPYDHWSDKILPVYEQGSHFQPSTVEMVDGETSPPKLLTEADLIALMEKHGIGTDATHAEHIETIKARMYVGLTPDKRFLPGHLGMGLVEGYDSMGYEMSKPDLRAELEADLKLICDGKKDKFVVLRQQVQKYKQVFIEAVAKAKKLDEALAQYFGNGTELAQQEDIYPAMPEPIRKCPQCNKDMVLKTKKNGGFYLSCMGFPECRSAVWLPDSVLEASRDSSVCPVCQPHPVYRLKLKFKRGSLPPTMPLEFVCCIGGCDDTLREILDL

A weaker result is weaker than the reference pair of the same experiment.

Experimental findings from PMC12678531 are described below.

Regarding “CCGAAACCAGACGAGCTACCTAAGAACAGC (double strand) [DNA2 (30 bp)]”, the binding result was “binds more weakly”.
